Experimental data published in paper PMC11687841.

The chains behind the UniProt entries cited, without tags or fusion partners. Residues count along the entry.
UniProt O43707: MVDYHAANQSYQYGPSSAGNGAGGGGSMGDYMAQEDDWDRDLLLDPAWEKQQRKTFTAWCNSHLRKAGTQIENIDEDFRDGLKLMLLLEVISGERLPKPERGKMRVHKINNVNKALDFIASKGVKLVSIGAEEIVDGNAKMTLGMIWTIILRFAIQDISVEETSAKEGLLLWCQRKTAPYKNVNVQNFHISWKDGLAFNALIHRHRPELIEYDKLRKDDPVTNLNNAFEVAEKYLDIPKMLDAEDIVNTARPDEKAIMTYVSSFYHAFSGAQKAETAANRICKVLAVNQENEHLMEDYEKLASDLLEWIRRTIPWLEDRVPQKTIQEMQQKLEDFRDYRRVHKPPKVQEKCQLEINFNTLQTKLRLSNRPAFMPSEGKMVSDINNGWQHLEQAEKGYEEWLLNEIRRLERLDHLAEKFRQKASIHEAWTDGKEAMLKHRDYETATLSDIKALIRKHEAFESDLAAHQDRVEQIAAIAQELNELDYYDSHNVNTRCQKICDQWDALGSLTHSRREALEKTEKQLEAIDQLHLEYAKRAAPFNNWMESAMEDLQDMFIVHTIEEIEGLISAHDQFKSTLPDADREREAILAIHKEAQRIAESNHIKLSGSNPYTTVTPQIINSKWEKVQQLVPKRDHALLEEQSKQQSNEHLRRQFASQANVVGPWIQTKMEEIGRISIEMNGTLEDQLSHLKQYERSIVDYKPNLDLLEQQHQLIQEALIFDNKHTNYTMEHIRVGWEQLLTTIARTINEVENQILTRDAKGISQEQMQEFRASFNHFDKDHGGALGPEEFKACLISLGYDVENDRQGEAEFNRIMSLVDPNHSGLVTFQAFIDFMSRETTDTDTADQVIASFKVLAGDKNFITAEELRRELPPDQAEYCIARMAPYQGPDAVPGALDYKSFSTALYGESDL
UniProt Q07936: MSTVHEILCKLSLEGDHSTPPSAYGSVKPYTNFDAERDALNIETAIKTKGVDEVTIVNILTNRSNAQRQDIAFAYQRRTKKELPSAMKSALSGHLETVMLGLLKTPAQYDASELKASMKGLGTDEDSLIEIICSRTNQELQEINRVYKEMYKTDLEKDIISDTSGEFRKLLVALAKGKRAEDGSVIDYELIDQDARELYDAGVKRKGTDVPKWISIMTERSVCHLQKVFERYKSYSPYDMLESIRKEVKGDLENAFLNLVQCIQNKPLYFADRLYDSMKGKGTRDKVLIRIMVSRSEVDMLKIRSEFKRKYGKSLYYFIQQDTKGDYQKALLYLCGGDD
UniProt Q641Y2, residues 34-463: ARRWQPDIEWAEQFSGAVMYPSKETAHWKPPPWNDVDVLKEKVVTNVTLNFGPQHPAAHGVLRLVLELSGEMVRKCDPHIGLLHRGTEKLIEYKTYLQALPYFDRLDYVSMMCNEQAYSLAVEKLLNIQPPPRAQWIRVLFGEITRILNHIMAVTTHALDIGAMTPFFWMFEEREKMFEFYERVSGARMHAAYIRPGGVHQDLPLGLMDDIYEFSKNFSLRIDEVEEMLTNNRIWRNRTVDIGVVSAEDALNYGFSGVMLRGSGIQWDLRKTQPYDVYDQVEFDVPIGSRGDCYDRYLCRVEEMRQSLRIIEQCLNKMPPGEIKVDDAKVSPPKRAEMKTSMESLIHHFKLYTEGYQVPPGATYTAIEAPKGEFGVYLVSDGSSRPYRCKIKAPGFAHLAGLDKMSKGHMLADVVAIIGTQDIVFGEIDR
UniProt P62836: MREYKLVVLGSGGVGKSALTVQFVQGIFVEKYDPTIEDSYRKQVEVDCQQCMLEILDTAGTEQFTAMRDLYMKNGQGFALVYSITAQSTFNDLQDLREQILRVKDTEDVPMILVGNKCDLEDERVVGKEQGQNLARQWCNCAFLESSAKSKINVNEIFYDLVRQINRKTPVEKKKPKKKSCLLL
UniProt P45592: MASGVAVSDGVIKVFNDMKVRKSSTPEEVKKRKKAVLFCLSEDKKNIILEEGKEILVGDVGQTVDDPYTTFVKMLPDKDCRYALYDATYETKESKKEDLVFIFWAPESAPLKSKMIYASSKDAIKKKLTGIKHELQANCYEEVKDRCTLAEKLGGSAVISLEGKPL
UniProt Q5XIH7: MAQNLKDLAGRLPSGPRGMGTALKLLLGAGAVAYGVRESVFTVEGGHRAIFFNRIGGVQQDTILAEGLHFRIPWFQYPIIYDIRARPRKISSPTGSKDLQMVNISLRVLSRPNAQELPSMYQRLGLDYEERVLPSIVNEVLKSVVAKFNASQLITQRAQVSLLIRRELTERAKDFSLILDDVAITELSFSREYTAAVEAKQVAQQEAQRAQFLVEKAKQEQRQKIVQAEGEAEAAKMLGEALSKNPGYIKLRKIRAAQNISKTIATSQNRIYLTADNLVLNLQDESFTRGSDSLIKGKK

B1: Annexin A1 (protein, UniProt P07150 1-346)
chain: MAMVSEFLKQACYIEKQEQEYVQAVKSYKGGPGSAVSPYPSFNPSSDVAALHKAIMVKGVDEATIIDILTKRTNAQRQQIKAAYLQETGKPLDETLKKALTGHLEEVVLAMLKTPAQFDADELRAAMKGLGTDEDTLIEILTTRSNQQIREITRVYREELKRDLAKDITSDTSGDFRNALLALAKGDRCEDMSVNQDLADTDARALYEAGERRKGTDVNVFNTILTTRSYPHLRKVFQNYRKYSQHDMNKALDLELKGDIEKCLTTIVKCATSTPAFFAEKLYEAMKGAGTRHKTLIRIMVSRSEIDMNEIKVFYQKKYGIPLCQAILDETKGDYEKILVALCGGN
B2: Na+/K+/2Cl- cotransporter NKCC2 (solute carrier family 12 member 1) (protein, UniProt P55016 1-1095)
chain: MSVNIPSNSVPSGASRFQVHVINEGHGSGAAMSDSTDPPHYEETSFGDEAQNRLKISFRPGNQECYENFLQTGETAKTDTTFHAYDSHTNTYYLQTFGHNTMDAVPKIEYYRNTGSVSGPKVNRPSLQEIHEQLAKNVAVAPGSADRVANGDGMPGDEQAENKEEDVTGVVKFGWVKGVLVRCMLNIWGVMLFIRLSWIVGEAGIGLGVIIIGLSVVVTTLTGISMSAICTNGVVRGGGAYYLISRSLGPEFGGSIGLIFRFANAVRVAMYVVGFAETVVDLLKESDSMMVDPTNDIRIIGSITVVILLGISVAGMEWEAKAQVILLVILLIGIANFFIGTVIPSNNEKKSRGFFNYQASIFAENFGPSFTEGEGFFSVFAIFFPAATGILAGANISGDLEDPQDAIPRGTMLAIFITTVAYIGVAICVRACVVRDATGSMNDTVVSGMNCNGSAACGLGYDFSRCQHEPCQYGLMNNFQVMSMVSGFGPLITAGIFSATLSSALASLVSAPKVFQALCKDNIFKGLQFFAKGYGKNNEPLRGYFLTFVIAMAFILIAELNVIAPIISNFFLASYALINFSCFHASYAKSPGWRPAYGIYNMWVSLFGAILCCAVMFVINWWAAVITYVIELFLYIYVTYKKPDVNWGSSTQALSYVSALDNALELTTVEDHVKNFRPQCIVLTGGPMTRPALLDITHAFTKNSGLCICCEVFVGPRKLCVKEMNSGMAKKQAWLMKNKIKAFYAAVAADCFRDGVRSLLQASGLGRMKPNTLVIGYKKNWRKAPLSELENYVGIIHDAFDFEIGVVIVRISQGFDISPVLQVQDELEKLEQERLALEAAIKDNDCEEGKGGIRGLFKKAGKLNITKPAPKKDSNISTIQSMHVGEFNQKLVEASAQFKKKQGKGTIDVWWLFDDGGLTLLIPYILTLRKKWKDCKLRIYVGGKINRIEEEKISMASLLSKFRIKFADIHIIGDINIKPNKESWKVFEEMIEPYRLHESHKDLTTAEKLKRESPWKITDAELEAVKEKSYRQVRLNELLQEHSRAANLIVLSLPVARKGSISDLLYMAWLEILTKNLPPVLLVRGNHKNVLTFYS
B3: isocitrate dehydrogenase [NAD] subunit γ 1 (IDHG1) (protein, UniProt P41565 40-393)
chain: SSQQTIPPSAKYGGRHTVTMIPGDGIGPELMLHVKSVFRHACVPVDFEEVHVSSNADEEDIRNAIMAIRRNRVALKGNIETNHDLPPSHKSRNNILRTSLDLYANVIHCKSLPGVVTRHKDIDILIVRENTEGEYSSLEHESVAGVVESLKIITKAKSLRIAEYAFKLAQESGRKKVTAVHKANIMKLGDGLFLQCCREVAARYPQITFDSMIVDNTTMQLVSRPQQFDVMVMPNLYGNIVNNVCAGLVGGPGLVAGANYGHVYAVFETATRNTGKSIANKNIANPTATLLASCMMLDHLKLHSYATSIRKAVLASMDNENMHTPDIGGQGTTSQAIQDIIRHIRIINGRAVEA
B4: N-acetyltransferase 8 (NAT8) (protein, UniProt Q9QXT3 1-222)
chain: MASFHIRQFQERDYEQVVDMFSRGMKEHIPTAFRHLLLLPRTLLLLLGVPLALVLVSGSWLLAVVCIFFLLPFLWFLAGQPWKNYVSKCLHTDMADITKSYLSDRGSGFWVAESGGQIVGTVGALPVKDPPSGRKQLQLFRLSVSSQHRGQGIAKALVRTVLQFARDQGYTDVVLVTGLLQQGAVTLYYSMGFQKTGESFMDILTWLVDVSLIHFIYPLPSS

Molecular target: GST-full-length ACTN4 (glutathione-S-transferase-fusion actinin-4) (UniProt O43707)
Assay: affinity purification with mass spectrometry; purified GST-ACTN4 or GST alone incubated with rat medullary TAL lysate (100 µg, precleared with glutathione beads) overnight at 4°C; isolated on glutathione-agarose beads; washed three times low-salt (0.01 mM NaCl) and three times high-salt (500 mM NaCl); LC-MS/MS; only the target purified

| binding | Molecule |
| --- | --- |
| binds | Annexin A2 (ANXN2) (from UniProt Q07936 1-339) |
| binds | NADH dehydrogenase iron-sulfur protein 2 (NDUS2) (from UniProt Q641Y2 34-463) |
| binds | Ras-related protein Rap-1A (RAP1A) (from UniProt P62836 1-184) |
| binds | apolipoprotein B (APOB) (from UniProt Q7TMA5 28-4743) |
| binds | cofilin-1 (CFL1) (from UniProt P45592 1-166) |
| binds | prohibitin-2 (PHB2) (from UniProt Q5XIH7 1-299) |
| binds | B1 |
| binds | B2 |
| binds | B3 |
| binds | B4 |

No constants are given. Whether binding was seen depends on the method and setting. In cells and extracts the contact can be indirect. These calls come from enrichment with a bait or labelling near it, and not all partners need be listed.
